This passage reports binding results from US20210325404A1 (ADURO BIOTECH HOLDINGS EUROPE B V, published 2021).

Positions count from the first letter of the chain named. No constants are given. Whether binding was seen depends on the method and setting. Some binding calls cover weakened binding; strength is not graded here.

Experiment [1] has as its target T1, human APRIL in serum of CLL patients (human, UniProt O75888 105-250).
T1 construct: Endogenous soluble APRIL in patient sera (CLL1, CLL3, CLL6, CLL11-20); also called hAPRIL; A Proliferation-Inducing Ligand
T1 sequence (looked up): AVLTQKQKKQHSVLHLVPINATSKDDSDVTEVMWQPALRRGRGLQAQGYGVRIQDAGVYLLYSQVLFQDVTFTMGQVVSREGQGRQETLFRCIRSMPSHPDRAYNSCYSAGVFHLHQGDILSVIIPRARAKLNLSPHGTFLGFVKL
Nature of the experiment: ELISA: serum APRIL of CLL1, CLL3 and CLL6 captured by BCMA-Fc (500 or 100 ng/well). The procedure:
To quantify the APRIL serum levels in serum derived from CLL patients using the newly identified APRIL monoclonal antibodies, hAPRIL.130, hAPRIL.132, hAPRIL.133, hAPRIL.135 and hAPRIL.138 the following ELISA assay was performed. […] Next, plates were washed three times with PBS/0.2% Tween and blocked with 150 μl PBS/1% BSA for one hour at 37° C. After washing 3 times with PBS/0.2% Tween 100 μl of samples or standard curves was added. The CLL serum samples were five times diluted in PBS/10% FCS, while standard curve was diluted in PBS+FCS 10%+HS 20%. Samples and standard curve concentrations were incubated for 2 hr at room temperature. Next, plates were washed three times with PBS/0.2% Tween. Next, 100 μl of the anti-APRIL monoclonal antibody was added to the plates at a concentration of 1 μg/ml diluted in PBS/1% BSA and incubated for one hour at 37° C. Subsequently, plates were washed three times with PBS/0.2% Tween and 100 μl of Goat anti-Mouse IgG (H&L) (Southern Biotech, cat number 1031-05), diluted 1:1,000 in PBS/1% BSA was added and incubated for one hour at 37° C. Plates were washed three times with PBS/0.2% Tween and bound immune complexes visualized by addition of 100 μl of TMB substrate (TMB). The reaction was stopped by adding an equal amount of 1 M hydrochloric acid to the reaction volume. Bound APRIL was quantified by measurement of optical density at 450 nm.

Experiment [2] addresses secreted form of FLAG-hAPRIL (pCR3-hAPRIL) (human) (UniProt O75888). Briefly: ELISA: hybridoma supernatant on FLAG-hAPRIL captured by coated BCMA-Fc.
Experiment [3] concerns the target T1, human APRIL in serum of CLL patients. Nature of the experiment: ELISA: serum APRIL captured by BCMA-Fc, antibody at 1 µg/ml, goat anti-mouse IgG detection. The method, then: To quantify the APRIL serum levels in serum derived from CLL patients using the newly identified APRIL monoclonal antibodies, hAPRIL.130, hAPRIL.132, hAPRIL.133, hAPRIL.135 and hAPRIL.138 the following ELISA assay was performed. ELISA plates were coated with 100 μl of 0.5 μg/ml BCMA-Fc (EBC0512081; R&D), in coating buffer (0.2 M Sodium Phosphate, pH=6.5) and incubated overnight at 4° C. Next, plates were washed three times with PBS/0.2% Tween and blocked with 150 μl PBS/1% BSA for one hour at 37° C. After washing 3 times with PBS/0.2% Tween 100 μl of samples or standard curves was added. The CLL serum samples were five times diluted in PBS/10% FCS, while standard curve was diluted in PBS+FCS 10%+HS 20%. Samples and standard curve concentrations were incubated for 2 hr at room temperature. Next, plates were washed three times with PBS/0.2% Tween. Next, 100 μl of the anti-APRIL monoclonal antibody was added to the plates at a concentration of 1 μg/ml diluted in PBS/1% BSA and incubated for one hour at 37° C. Subsequently, plates were washed three times with PBS/0.2% Tween and 100 μl of Goat anti-Mouse IgG (H&L) (Southern Biotech, cat number 1031-05), diluted 1:1,000 in PBS/1% BSA was added and incubated for one hour at 37° C. […] Bound APRIL was quantified by measurement of optical density at 450 nm.

For experiment [4], the target named is recombinant APRIL (APRIL wt expressed in 293T cells) (UniProt O75888). Nature of the experiment: ELISA: recombinant APRIL standard curves captured by BCMA-Fc, detected by hAPRIL.133.
Experiment [5] shares this target. Nature of the experiment: ELISA: recombinant APRIL (100-0.04 ng/ml, with or without human serum) captured by BCMA-Fc, hAPRIL.133 at 1 µg/ml.

B1: hAPRIL.130 (antibody, IgG1, V domains shown)
VH: QVQLKESGPGLVAPSQSLSITCTVSGFSLTGYGVNWVRQPPGKGLEWLGVIWGDGSTEYNSALKSRLSISKDKSKSQVFLKMNSLQTDDTARYYCARDDDVMDYWGQGTSVTVSS
VL: SIVMTQTPKFLLVSAGDRVTITCKAGQSVTNDVAWYQQKPGQSPKLLIYYASNRFTGVPDRFTGSGYGTDFTFAISTVQAEDLAVYFCQQDYSSPWTFGGGTKLEIK
In the case of B1, the binding result in experiment [1], in experiment [2] and in experiment [3] was “binds” throughout.

B2: hAPRIL.133 (antibody, IgG1, V domains shown)
VH: B1 VH
VL: B1 VL with R18S, V19I, G26D, T30S, N31S, P40A, F55Y, T77S
notes: constant regions are not; also called hAPRIL.133 mAb; anti-hAPRIL.133 monoclonal antibody
Consider B2, for which the binding entry in experiment [4], in experiment [5] and in experiment [2] was “binds” throughout.

B3: hAPRIL.132 (antibody, IgG1, V domains shown)
VH: QEQLKESGPGLVAPSQSLSITCTVSGFSLTSYGVHWVRQPPGKGLEWLGVIWAGGSTNYNSALMSRLSISRDNSKSQVFLKMNSLQTDDTAMYYCAREGLDTSGFYYAMDYWGQGTSVTVSS
VL: DIQMTQTTSSLSASLGDRVTISCRAGQAISNYLNWYQQKPGGTVKLLIYYTSKLHSGVPSRFSGSGSGTDYSLTISNLEQEDIATYFCQQGYTLPYTFGGGTKLEIK
notes: constant regions are not; also called anti-hAPRIL antibody hAPRIL.132
Consider B3, for which the binding entry in experiment [2] is on record as “binds”.

B4: hAPRIL.135 (antibody, IgG1, V domains shown)
VH: QVQLKESGPGLVAPSQSLSITCTVSGFSLSRYSVHWVRQPPGKGLEWLGMIWGGGSTDYNSALKSRLSISKDNSKRQVFLKMNSLQTDDTAIYYCARSNWEIYALDYWGQGTSVTVSS
VL: DIVLTQSPASLAVSLGQRATISCKASQSIDYDGDNYMNWYQQKPGQPPKLLIYVASSLESGIPARFSGSGSGTDFTLNIHPVEEEDAATYYCQQSNVEPYTFGGGTKLEIK
notes: constant regions are not; also called anti-hAPRIL antibody hAPRIL.135
Regarding B4, in experiment [2], the binding entry is given as “binds”.

B5: hAPRIL.138 (antibody, IgG1, V domains shown)
VH: B4 VH with V34I, G42R, S70N, N83H, L105M
VL: B4 VL with A9P, N35R, S57N, N96H, V97E, Y100H
notes: constant regions are not; also called anti-hAPRIL antibody hAPRIL.138
In the case of B5, the binding result in experiment [2] is reported as “binds”.
